Here are results for 2 molecules from paper PMC7576246.

The chains behind the UniProt entries cited, without tags or fusion partners. Residues count along the entry.
UniProt P02545, residues 1-646: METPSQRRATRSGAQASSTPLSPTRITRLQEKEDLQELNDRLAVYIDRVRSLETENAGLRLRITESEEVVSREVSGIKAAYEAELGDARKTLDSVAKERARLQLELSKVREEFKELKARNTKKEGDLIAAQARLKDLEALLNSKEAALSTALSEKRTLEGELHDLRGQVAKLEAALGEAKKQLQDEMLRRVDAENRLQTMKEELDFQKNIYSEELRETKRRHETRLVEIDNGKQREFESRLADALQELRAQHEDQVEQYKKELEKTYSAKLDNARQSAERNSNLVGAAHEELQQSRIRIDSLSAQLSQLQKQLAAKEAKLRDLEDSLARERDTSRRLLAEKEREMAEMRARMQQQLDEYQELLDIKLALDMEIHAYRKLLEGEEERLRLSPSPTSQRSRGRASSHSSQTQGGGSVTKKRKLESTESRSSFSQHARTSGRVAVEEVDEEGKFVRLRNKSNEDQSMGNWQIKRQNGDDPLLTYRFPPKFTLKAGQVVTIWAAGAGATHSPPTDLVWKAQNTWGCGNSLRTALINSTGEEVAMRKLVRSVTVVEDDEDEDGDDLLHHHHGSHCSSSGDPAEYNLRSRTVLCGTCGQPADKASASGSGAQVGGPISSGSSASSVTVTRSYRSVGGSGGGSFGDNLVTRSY
UniProt Q86U44: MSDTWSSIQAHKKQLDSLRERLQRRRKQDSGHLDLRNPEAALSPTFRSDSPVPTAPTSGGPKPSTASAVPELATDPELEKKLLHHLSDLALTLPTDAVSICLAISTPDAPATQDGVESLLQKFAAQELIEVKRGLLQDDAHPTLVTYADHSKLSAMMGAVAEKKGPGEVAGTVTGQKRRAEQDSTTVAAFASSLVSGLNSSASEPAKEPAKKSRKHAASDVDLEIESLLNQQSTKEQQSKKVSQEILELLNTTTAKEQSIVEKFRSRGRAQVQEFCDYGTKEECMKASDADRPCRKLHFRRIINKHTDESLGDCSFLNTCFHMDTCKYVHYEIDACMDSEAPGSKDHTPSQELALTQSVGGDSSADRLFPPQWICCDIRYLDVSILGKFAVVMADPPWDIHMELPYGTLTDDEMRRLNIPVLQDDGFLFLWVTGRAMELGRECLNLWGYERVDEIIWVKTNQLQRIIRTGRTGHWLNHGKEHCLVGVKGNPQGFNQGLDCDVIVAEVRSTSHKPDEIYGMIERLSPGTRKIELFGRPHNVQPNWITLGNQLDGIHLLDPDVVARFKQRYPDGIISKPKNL

In one test the target is FLAG-Lamin A (UniProt P02545). The experiment in a line: co-IP; HEK293 cells overexpressing FLAG-Lamin A with HA-METTL14 or HA-METTL3; anti-FLAG immunoprecipitates blotted; lysis buffer 20 mM Tris-HCl pH 7.5, 300 mM NaCl, 10% glycerol, 0.1 mM EDTA, 0.1% NP-40; 4°C overnight.
A further test addresses T1, FLAG-SC35 (UniProt Q01130).
T1 sequence: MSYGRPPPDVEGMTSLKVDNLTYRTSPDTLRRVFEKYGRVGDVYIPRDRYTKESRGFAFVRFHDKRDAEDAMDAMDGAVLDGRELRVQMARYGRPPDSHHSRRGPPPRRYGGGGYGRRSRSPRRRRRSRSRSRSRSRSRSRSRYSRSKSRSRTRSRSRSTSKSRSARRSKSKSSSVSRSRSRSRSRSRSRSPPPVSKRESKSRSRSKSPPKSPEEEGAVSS
The test can be described thus: co-IP; FLAG-SC35 with HA-METTL14 in the presence of co-expressed Lamin A, prelamin A or Progerin; cells not given; lysis buffer 20 mM Tris-HCl pH 7.5, 300 mM NaCl, 10% glycerol, 0.1 mM EDTA, 0.1% NP-40.

No constants are given. Whether binding was seen depends on the method and setting. Binding seen in cells or lysates may run through a third protein. Some entries that bind do so weakly or less than the wild type. Sequences can lack the tags named with a protein.

Take HA-METTL3 (from UniProt Q86U44 1-580): the binding result with FLAG-Lamin A is recorded as “binds”.

B1: HA-METTL14 (protein, UniProt Q9HCE5 1-456)
chain: MDSRLQEIRERQKLRRQLLAQQLGAESADSIGAVLNSKDEQREIAETRETCRASYDTSAPNAKRKYLDEGETDEDKMEEYKDELEMQQDEENLPYEEEIYKDSSTFLKGTQSLNPHNDYCQHFVDTGHRPQNFIRDVGLADRFEEYPKLRELIRLKDELIAKSNTPPMYLQADIEAFDIRELTPKFDVILLEPPLEEYYRETGITANEKCWTWDDIMKLEIDEIAAPRSFIFLWCGSGEGLDLGRVCLRKWGYRRCEDICWIKTNKNNPGKTKTLDPKAVFQRTKEHCLMGIKGTVKRSTDGDFIHANVDIDLIITEEPEIGNIEKPVEIFHIIEHFCLGRRRLHLFGRDSTIRPGWLTVGPTLTNSNYNAETYASYFSAPNSYLTGCTEEIERLRPKSPPPKSKSDRGGGAPRGGGRGGTSAGRGRERNRSNFRGERGGFRGGRGGAHRGGFPPR
On to B1, for which the binding result in the test with FLAG-SC35 and with FLAG-Lamin A was “binds” in each case.
